From PubChem BioAssay AID1347075 (National Center for Advancing Translational Sciences (NCATS), 2019)
About 5,500 (1.4%) of roughly 400,000 compounds were called active. Inconclusive results, whose numbers are uncertain, are shown with a selection of clear calls. Calls follow the shape of the dose curve; as a rule, active = well fitted cell-killing curve with a large enough effect; inconclusive = small, poorly fitted or top-dose-only effect, or effect the other way; inactive = flat fitted curve, though single readings scatter. Potencies beside an inconclusive call are fits to weak or partial responses and may not hold up.

Test: qHTS assay for MDR1-selective chemotherapeutics: Primary screen using the parental adenocarcinoma cell KB-3-1; also: nearly all actives have a fitted effect of over 60% in size
Conditions: KB-3-1 viability, CellTiter-Glo ATP luminescence, 72 h; activity change, negative = cytotoxic: at 46.1 µM (top of the series)
Outline: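 Cytotoxicity measured as CellTiter-Glo luminescence after 72 h at 37 C. Compound titrations were pinned onto drug-naive KB-3-1 parental adenocarcinoma cells grown in DMEM with 10% FBS, and normalized data fitted to concentration-response curves.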
% is scaled to controls: 0 for no effect and ±100 for the full control effect; potency is read from the fitted curve at half-maximal effect.

SMILES | Potency | activity change, negative = cytotoxic
C[C@]12CC[C@H](O)C[C@H]1CC[C@@H]1C2CC[C@]2(C)[C@@H](C3=CC(=O)OC3)[C@@H](O)C[C@]12O (some centres not stated) | active: 2.31 µM | 
CCCCCn1c(=O)c(C(=O)Nc2ccccc2S(N)(=O)=O)c(O)c2ccccc21 | active: 10.3 µM | 
CC(C)Oc1cc(-n2c(=S)[nH]c3ccccc3c2=O)c(Cl)cc1Cl | inconclusive: 18.4 µM [cytotoxic, partial curve, poor fit] | 
CCOP(=O)(OCC)C(NC(=O)C(C)C)C(Cl)(Cl)Cl (configuration not stated) |  | inactive: -2.05%
CCN(CC)C(=O)c1ccc(NC(=O)c2cccc(S(=O)(=O)N3CCN(Cc4ccccc4)CC3)c2)cc1 | inconclusive: 16.4 µM [cytotoxic, single point] | 
COC(=O)Nc1nc2ccccc2[nH]1 | active: 10.3 µM | 
CN1CCN(c2ccc([N+](=O)[O-])c3no[n+]([O-])c23)CC1 | inconclusive: 2.06 µM [cytotoxic, full curve, poor fit] | 
CCC(C)C1NC(=O)C(NC(=O)C(CC(C)C)N(C)C(=O)C2CCCN2C(=O)C(C)O)C(C)OC(=O)C(Cc2ccc(OC)cc2)N(C)C(=O)C2CCCN2C(=O)C(CC(C)C)NC(=O)[C@H](C)C(=O)[C@H](C(C)C)OC(=O)CC1O (some centres not stated) | active: 0.164 µM | 
C=C(C=O)CC1CC(O)[C@]2(C)OC3CC4OC5C[C@]6(C)O[C@]7(C)CCC8OC9C[C@]%10(C)OC%11C(C)=CC(=O)OC%11CC%10OC9C[C@@H](C)C8OC7CC6O[C@]5(C)CC5OC5C4OC3CC2O1 (some centres not stated) | active: 11.6 µM | 
CC(C(=O)c1ccc2ccccc2c1)N1CCCCC1 (configuration not stated) |  | inactive: -18.1%
O=C(c1cccn2c(=O)c3ccc(Cl)cc3nc12)N1CCC2(CC1)OCCO2 | inconclusive: 10.3 µM [rising, partial curve, poor fit] | 
COc1cc(C)c(CNCCc2c[nH]c3ccccc23)cc1C | inconclusive: 25.9 µM [cytotoxic, single point] | 
COc1ccc(-c2ccc3c(c2)CN(C(=O)CCc2ccccc2)Cc2cnnn2-3)cc1 | inconclusive: 29.1 µM [cytotoxic, single point] | 
O=[N+]([O-])c1ccc2c(c1)C(c1ccccc1)=NCCN2 |  | inactive: -13.8%
CCC(=NCCc1c[nH]c2ccccc12)c1c(O)n(C)c(=O)n(C)c1=O | inconclusive: 23.1 µM [cytotoxic, single point] | 
O=C(c1cccc(Cl)c1)C1CCCN(Cc2cccc3cnccc23)C1 (configuration not stated) | inconclusive: 18.4 µM [cytotoxic, partial curve, poor fit] | 
O=C(c1cc(Cl)cc(Cl)c1)N1Cc2ccccc2-n2nncc2C1 |  | inactive: 4.94%
O=c1[nH]c2ccccc2n1C1CCN(Cc2ccc(-c3nc4ccc(F)cc4nc3-c3ccccc3)cc2)CC1 | inconclusive: 29.1 µM [cytotoxic, single point] | 
O=C1NC(=O)C(Nc2ccccc2)C(=O)N1 |  | inactive: -0.433%
O=C1NCN(c2ccccc2)C12CCN(C(CCc1ccccc1)c1nnnn1-c1ccc3c(c1)OCCO3)CC2 (configuration not stated) | inconclusive: 29.1 µM [cytotoxic, single point] | 
COc1ccccc1N1CCN(Cc2ccccc2F)CC1 |  | inactive: 1.7%
COc1ccc(/C=C/C=C2C(=O)NC(=S)NC2=O)cc1 | inconclusive: 29.1 µM [cytotoxic, single point] | 
CCCCn1c(=O)c(C(=O)NCc2ccccc2OC)c(O)c2ccccc21 | active: 23.1 µM | 

SMILES | Potency | activity change, negative = cytotoxic
Cc1ccc(C(=O)N[C@@H](C)CN2C3=NC[C@@H](Cc4ccccc4)N3C[C@H]2Cc2ccc(O)cc2)cc1Br | inconclusive: 29.1 µM [cytotoxic, single point] | 
COC(=O)C[C@]1(C(=O)OC)CN(C#N)N(c2ccc(Cl)cc2)C12c1ccccc1-c1ccccc12 | active: 5.17 µM | 
Nc1c(Br)cc2c3c(cccc13)-c1ccccc1-2 | inconclusive: 9.2 µM [rising, partial curve] | 
COC(=O)C1=C(c2ccccc2OCc2ccccc2)C[C@@H]2CC[C@H]1N2C(=O)NC1CCN(Cc2ccccc2)CC1 | inconclusive: 29.1 µM [cytotoxic, single point] | 
CCC(=NCCO)c1c(O)n(-c2ccccc2)c(=O)[nH]c1=O |  | inactive: -11.7%
COc1ccc2c(c1OC)CN1CCc3cc4c(cc3[C@H]1C2)OCO4 |  | inactive: -26.2%
CCc1ccc(N2C(=O)NC(=O)/C(=C\c3cc(C)n(-c4cc(C(=O)O)cc(C(=O)O)c4)c3C)C2=O)cc1 |  | inactive: 2.18%
O=C(Cn1cc(C(=O)c2ccccc2)c2ccccc21)NCc1ccco1 | inconclusive: 18.4 µM [cytotoxic, single point] | 
CCCCCn1c(=O)c(C(=O)Nc2c(C)n(C)n(-c3ccccc3)c2=O)c(O)c2ccccc21 | inconclusive: 25.9 µM [cytotoxic, single point] | 
CC(=Nc1ccccc1N)c1c(O)n(C)c(=O)n(C)c1=O |  | inactive: -4.1%
O=C1NCN(c2ccccc2)C12CCN(C(CCc1ccccc1)c1nnnn1C1CCCC1)CC2 (configuration not stated) | inconclusive: 29.1 µM [cytotoxic, single point] | 
Cc1ccccc1-[n+]1c(-c2ccccc2)cc(-c2ccccc2)cc1-c1ccccc1 | active: 6.51 µM | 
Fc1ccc(C(OCCN2CCN(CCCc3ccccc3)CC2)c2ccc(F)cc2)cc1 | inconclusive: 29.1 µM [cytotoxic, single point] | 
CC(=O)Nc1ccccc1C(=O)OCC(=O)Nc1ncccn1 | inconclusive: 9.2 µM [rising, partial curve, poor fit] | 
O=C(NC1(C(F)(F)F)Oc2ccc(Cl)cc2O1)N1CCC2(CC1)OCCO2 (configuration not stated) | inconclusive: 29.1 µM [cytotoxic, single point] | 
O=C1NC2C(=CC(O)C(O)C2O)c2cc3c(c(O)c21)OCO3 (configuration not stated) | active: 0.103 µM | 
COC(=O)C1=C(c2ccc(Cl)c(C(F)(F)F)c2)C[C@@H]2CC[C@H]1N2C(=O)NCC1CC1 | inconclusive: 18.4 µM [cytotoxic, single point] | 
COc1cc(CN2CCCC(C(=O)c3sccc3C)C2)cc(OC)c1O (configuration not stated) |  | inactive: -0.127%
O=c1[nH]c(=S)n(CCC2=CCCCC2)c(O)c1C=NC1CCN(Cc2ccccc2)CC1 | inconclusive: 18.4 µM [cytotoxic, single point] | 
O=C1CN=C(c2ccccc2)c2ccccc2N1Cc1ccc(C(F)(F)F)cc1 | inconclusive: 23.1 µM [cytotoxic, partial curve, poor fit] | 
COc1ccc(-n2nnnc2C(CCc2ccccc2)N2CCC3(CC2)C(=O)NCN3c2ccccc2)cc1 (configuration not stated) | inconclusive: 29.1 µM [cytotoxic, single point] | 
CCCCCCCn1c(=O)c(C(=O)Nc2cnccn2)c(O)c2ccccc21 | active: 3.26 µM | 
Cc1cc(N2CCCC2)ccc1C=C(C#N)C#N |  | inactive: -10.8%

A different layout for five compounds above:
SMILES,Potency,"activity change, negative = cytotoxic"
CCCCCn1c(=O)c(C(=O)Nc2c(C)n(C)n(-c3ccccc3)c2=O)c(O)c2ccccc21,"inconclusive: 25.9 µM [cytotoxic, single point]",
Fc1ccc(C(OCCN2CCN(CCCc3ccccc3)CC2)c2ccc(F)cc2)cc1,"inconclusive: 29.1 µM [cytotoxic, single point]",
COC(=O)C1=C(c2ccc(Cl)c(C(F)(F)F)c2)C[C@@H]2CC[C@H]1N2C(=O)NCC1CC1,"inconclusive: 18.4 µM [cytotoxic, single point]",
O=C1CN=C(c2ccccc2)c2ccccc2N1Cc1ccc(C(F)(F)F)cc1,"inconclusive: 23.1 µM [cytotoxic, partial curve, poor fit]",
CCCCCCCn1c(=O)c(C(=O)Nc2cnccn2)c(O)c2ccccc21,active: 3.26 µM,

Next part.

SMILES | Potency | activity change, negative = cytotoxic
C1=NCCc2c1[nH]c1ccccc21 | inconclusive: 16.4 µM [cytotoxic, single point] | 
C(#CCN1CCOCC1)COC/C=C/c1ccccc1 |  | inactive: -1.7%
CCCCCN1C(=O)c2cc(OC)ccc2[C@@]2(C(=O)OCC)Cc3cc(OC)ccc3[C@@H]12 | active: 5.8 µM | 
COc1ccc(Cn2c(N)c(C(=O)NCc3ccco3)c3nc4ccccc4nc32)cc1OC | inconclusive: 29.1 µM [cytotoxic, single point] | 
COc1ccc(C(Nc2ccccc2)P(=O)(Oc2ccccc2)Oc2ccccc2)cc1 (configuration not stated) |  | inactive: -7.58%
COc1ccc(Br)cc1C1SCC(=O)Nc2c1c(C)nn2-c1ccccc1C (configuration not stated) | inconclusive: 23.1 µM [cytotoxic, single point] | 
CCCC1=Nc2cc(C(=O)NCCCN(CC)CC)ccc2Sc2ccccc21 | inconclusive: 23.1 µM [cytotoxic, partial curve] | 
O=[N+]([O-])c1ccc(N(CCO)CCO)c2c1no[n+]2[O-] | active: 4.61 µM | 
CN(C)C(=O)Oc1ccc(Br)cc1C(=O)Nc1ccc(F)c(Cl)c1 | inconclusive: 1.03 µM [cytotoxic, full curve, poor fit] | 
CC1CCC(C(C)C)C(OC(=O)Cn2c(COc3ccccc3)[n+](C)c3ccccc32)C1 (configuration not stated) | active: 23.1 µM | 
Oc1c(Cl)cccc1Cc1cc(Cl)cc(Cl)c1O | inconclusive: 29.1 µM [cytotoxic, single point] | 
CNCCc1c[nH]c2ccc(O)cc12 | inconclusive: 1.16 µM [rising, full curve] | 
O=c1c2ccccc2nc(N2CCCC2)n1-c1ccc(Cl)cc1 | inconclusive: 29.1 µM [cytotoxic, single point] | 
COc1ccc(OCC#CCN2CCNCC2)cc1 |  | inactive: 10.6%
O=C(CN1CCOCC1)c1ccc2ccccc2c1 | inconclusive: 7.31 µM [rising, partial curve, poor fit] | 
CCN1/C(=C\C=C\C2=[N+](CC)c3ccccc3C2(C)C)C(C)(C)c2ccccc21 | inconclusive: 0.184 µM [cytotoxic, full curve, poor fit] | 
CN=C1CN=C(c2ccc[nH]2)c2cc(Cl)ccc2N1 | inconclusive: 0.92 µM [rising, full curve] | 
COc1ccc(-n2c(SC)nc3ccccc3c2=O)cc1 |  | inactive: -2.21%
O=C(CCN1CC=C(c2ccccc2)CC1)NCc1ccccc1 | inconclusive: 16.4 µM [cytotoxic, single point] | 
COc1cccc(-c2nn(CCC#N)cc2C(=O)Nc2ccccc2Cl)c1 | inconclusive: 29.1 µM [cytotoxic, single point] | 
CCCc1nc2ccc(Br)cc2c(=O)n1-c1ccc([N+](=O)[O-])c(C(F)(F)F)c1 | inconclusive: 29.1 µM [cytotoxic, single point] | 
